Test system: acetic acid-induced visceral pain
Assay: acetic acid-induced visceral pain mouse model (writhing/stretch count)
Assay type: in vivo, mice (male Harlan ICR)
Settings: for number of stretches (writhes) per 30 minutes: 0.75% acetic acid IP half an hour later, control mice typically stretch 65-70 times/30 minutes
Experimental: The acetic acid-induced visceral pain mouse model test is, of course, well known to those skilled in the art and is described in the seminal paper by Collier et al [Collier, H. O. J., L. C. Dinneen, C. A. Johnson and C. Schneider 1968. The abdominal constriction response and its suppression by analgesic drugs in the mouse.
The drugs are identified below as Monoamine #1-6. Five groups of five mice (male Harlan ICR, weight 35-50 g) were used to test each of the drugs. Control animals were tested as part of each experiment as well. The mice in each group were weighed and identified with a tail marking and were given a single dose of one of the drugs at 1 ml/100 g SC. The first group served as controls and was given only saline; the other five groups were given a drug at five doses ranging from 0.37 mg/kg up to 30.0 mg/kg. After the drug was administered, the mice were allowed to acclimate for one-half hour and were then given an IP injection of 0.75% Glacial acetic acid at a volume of 1 ml/100 g. Once the acid was injected, the mice were put into individual clear containers for observation. The mice were then watched continuously for one-half hour and the number of “stretches” or writhes were counted. The animal was considered to be stretching when its front legs stepped forward and at least one hind leg was extended out behind them. At the end of the thirty-minute observational period the mice were sacrificed with CO2. The same procedure was followed for all of the different compounds examined.

## CN1CC[C@]23c4c5ccc(O)c4O[C@H]2[C@@H](O)C=C[C@H]3[C@H]1C5 [morphine, reference compound]
10 mg/kg SC single dose
  number of stretches (writhes) per 30 minutes: 0 stretches/30 minutes
30 mg/kg SC single dose
  number of stretches (writhes) per 30 minutes: 0 stretches/30 minutes
Doses from 0.37 mg/kg to 30.0 mg/kg SC
  effect on inhibiting visceral pain (stretches vs. control mice), in words: effective at all of the doses tested

From patent US20060160905A1, “Compositions and methods for inhibiting pain” (priority 2005, published 2006)
